These are yes or no findings as the source states them, for the method shown. In cells and extracts the contact can be indirect. These calls come from enrichment with a bait or labelling near it, and not all partners need be listed.
Target: Rpn11-TBHA (mouse knock-in, Psmd14^TBHA) (mouse) (UniProt O35593)
Test: affinity purification with mass spectrometry; 26S proteasomes purified by the TBHA-streptavidin system, eluted by TEV cleavage, MS; WT cells (compared with Rpt2-G2A cells), two independent MS experiments

Amino acid sequences for entries named in this document (tags omitted).
UniProt O35593: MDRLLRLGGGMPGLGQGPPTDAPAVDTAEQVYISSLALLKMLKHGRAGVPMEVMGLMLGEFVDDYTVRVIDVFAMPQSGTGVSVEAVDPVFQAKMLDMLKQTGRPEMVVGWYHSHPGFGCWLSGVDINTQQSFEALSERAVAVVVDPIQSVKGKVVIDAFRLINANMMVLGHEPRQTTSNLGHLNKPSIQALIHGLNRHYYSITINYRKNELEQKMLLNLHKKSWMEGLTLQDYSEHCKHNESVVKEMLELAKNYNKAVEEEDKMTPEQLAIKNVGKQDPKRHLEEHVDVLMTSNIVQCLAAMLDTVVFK
UniProt Q06180: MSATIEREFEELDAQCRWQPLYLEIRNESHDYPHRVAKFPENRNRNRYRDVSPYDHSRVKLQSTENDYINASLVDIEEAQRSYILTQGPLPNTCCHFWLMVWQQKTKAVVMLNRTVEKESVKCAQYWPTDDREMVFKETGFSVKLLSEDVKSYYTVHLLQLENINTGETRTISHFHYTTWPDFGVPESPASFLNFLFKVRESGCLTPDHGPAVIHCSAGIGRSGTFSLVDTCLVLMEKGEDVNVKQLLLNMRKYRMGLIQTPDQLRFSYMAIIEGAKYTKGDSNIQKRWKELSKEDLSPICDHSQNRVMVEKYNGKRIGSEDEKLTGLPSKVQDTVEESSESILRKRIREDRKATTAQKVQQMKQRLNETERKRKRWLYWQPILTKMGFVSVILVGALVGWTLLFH

For “membrane-localized tyrosine phosphatase PTPN2 (from UniProt Q06180 1-406) (enzyme)”, the binding was “binds”.
